The results in this text go back to article PMC13334641.

Amino acid sequences for entries named in this document (tags omitted). Residues count along the entry.
UniProt Q14416, residues 19-872: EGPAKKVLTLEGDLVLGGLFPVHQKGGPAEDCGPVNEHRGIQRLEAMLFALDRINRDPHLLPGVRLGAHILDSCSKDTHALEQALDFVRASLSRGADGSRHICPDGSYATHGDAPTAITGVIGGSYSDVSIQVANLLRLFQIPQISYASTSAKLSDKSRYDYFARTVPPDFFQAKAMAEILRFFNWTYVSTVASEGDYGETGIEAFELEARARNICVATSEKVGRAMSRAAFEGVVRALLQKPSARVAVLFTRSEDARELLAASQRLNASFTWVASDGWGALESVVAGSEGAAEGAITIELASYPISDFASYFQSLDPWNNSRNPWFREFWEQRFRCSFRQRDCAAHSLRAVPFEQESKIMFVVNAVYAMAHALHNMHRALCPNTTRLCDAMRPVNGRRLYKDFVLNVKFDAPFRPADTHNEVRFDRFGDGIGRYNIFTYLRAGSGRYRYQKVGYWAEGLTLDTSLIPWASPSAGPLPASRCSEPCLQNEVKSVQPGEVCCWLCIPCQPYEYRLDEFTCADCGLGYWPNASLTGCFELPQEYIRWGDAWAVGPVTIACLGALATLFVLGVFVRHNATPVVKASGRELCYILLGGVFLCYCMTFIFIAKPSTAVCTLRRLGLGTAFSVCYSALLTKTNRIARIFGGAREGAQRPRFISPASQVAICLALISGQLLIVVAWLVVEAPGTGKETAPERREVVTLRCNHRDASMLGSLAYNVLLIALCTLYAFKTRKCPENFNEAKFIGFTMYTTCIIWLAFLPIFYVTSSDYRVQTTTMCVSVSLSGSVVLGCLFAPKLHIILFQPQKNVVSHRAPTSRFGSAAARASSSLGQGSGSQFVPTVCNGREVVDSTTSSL
UniProt Q9QYS2, residues 23-879: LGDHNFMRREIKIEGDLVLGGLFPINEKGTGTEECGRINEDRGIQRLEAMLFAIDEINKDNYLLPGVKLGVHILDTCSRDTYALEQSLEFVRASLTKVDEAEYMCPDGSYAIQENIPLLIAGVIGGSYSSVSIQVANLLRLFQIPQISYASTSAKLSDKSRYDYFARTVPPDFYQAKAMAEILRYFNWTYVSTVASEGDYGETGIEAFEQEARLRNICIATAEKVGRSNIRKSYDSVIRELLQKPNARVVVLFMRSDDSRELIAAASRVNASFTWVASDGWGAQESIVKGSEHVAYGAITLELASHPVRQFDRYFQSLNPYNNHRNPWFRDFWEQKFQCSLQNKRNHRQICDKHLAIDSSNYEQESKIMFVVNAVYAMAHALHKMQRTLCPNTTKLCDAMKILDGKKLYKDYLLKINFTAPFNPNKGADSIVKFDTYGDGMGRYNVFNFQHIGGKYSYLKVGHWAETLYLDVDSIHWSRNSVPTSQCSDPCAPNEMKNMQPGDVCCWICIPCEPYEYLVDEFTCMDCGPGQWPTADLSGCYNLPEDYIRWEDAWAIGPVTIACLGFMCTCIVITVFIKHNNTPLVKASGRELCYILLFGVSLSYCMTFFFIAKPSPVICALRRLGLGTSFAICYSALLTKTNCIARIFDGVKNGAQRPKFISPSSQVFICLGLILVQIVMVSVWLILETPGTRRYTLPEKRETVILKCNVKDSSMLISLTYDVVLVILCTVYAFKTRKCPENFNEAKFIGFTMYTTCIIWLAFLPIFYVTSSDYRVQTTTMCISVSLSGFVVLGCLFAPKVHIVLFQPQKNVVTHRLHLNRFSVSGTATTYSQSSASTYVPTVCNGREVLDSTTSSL
UniProt Q14BI2, residues 19-872: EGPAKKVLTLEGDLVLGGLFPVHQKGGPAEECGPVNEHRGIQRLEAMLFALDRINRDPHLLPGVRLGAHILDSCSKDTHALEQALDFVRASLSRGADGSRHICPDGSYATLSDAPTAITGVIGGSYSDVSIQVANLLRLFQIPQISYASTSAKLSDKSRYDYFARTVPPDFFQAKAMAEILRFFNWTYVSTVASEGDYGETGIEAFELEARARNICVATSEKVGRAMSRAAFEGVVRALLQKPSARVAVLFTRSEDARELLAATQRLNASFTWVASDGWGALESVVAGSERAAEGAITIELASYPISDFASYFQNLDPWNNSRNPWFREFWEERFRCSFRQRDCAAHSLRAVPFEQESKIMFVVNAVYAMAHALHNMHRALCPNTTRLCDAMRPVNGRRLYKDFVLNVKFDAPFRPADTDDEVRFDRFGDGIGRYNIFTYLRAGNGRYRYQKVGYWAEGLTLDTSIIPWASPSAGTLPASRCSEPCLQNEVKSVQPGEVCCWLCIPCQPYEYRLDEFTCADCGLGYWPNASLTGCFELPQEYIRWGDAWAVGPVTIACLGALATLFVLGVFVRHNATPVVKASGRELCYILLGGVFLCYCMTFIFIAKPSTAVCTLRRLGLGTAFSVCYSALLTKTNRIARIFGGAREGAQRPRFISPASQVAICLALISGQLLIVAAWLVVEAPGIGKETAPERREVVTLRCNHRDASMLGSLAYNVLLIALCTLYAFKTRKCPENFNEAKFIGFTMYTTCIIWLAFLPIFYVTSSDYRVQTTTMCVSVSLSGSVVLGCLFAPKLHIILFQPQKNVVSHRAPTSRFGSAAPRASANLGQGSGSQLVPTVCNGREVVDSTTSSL
UniProt P41594, residues 21-1212: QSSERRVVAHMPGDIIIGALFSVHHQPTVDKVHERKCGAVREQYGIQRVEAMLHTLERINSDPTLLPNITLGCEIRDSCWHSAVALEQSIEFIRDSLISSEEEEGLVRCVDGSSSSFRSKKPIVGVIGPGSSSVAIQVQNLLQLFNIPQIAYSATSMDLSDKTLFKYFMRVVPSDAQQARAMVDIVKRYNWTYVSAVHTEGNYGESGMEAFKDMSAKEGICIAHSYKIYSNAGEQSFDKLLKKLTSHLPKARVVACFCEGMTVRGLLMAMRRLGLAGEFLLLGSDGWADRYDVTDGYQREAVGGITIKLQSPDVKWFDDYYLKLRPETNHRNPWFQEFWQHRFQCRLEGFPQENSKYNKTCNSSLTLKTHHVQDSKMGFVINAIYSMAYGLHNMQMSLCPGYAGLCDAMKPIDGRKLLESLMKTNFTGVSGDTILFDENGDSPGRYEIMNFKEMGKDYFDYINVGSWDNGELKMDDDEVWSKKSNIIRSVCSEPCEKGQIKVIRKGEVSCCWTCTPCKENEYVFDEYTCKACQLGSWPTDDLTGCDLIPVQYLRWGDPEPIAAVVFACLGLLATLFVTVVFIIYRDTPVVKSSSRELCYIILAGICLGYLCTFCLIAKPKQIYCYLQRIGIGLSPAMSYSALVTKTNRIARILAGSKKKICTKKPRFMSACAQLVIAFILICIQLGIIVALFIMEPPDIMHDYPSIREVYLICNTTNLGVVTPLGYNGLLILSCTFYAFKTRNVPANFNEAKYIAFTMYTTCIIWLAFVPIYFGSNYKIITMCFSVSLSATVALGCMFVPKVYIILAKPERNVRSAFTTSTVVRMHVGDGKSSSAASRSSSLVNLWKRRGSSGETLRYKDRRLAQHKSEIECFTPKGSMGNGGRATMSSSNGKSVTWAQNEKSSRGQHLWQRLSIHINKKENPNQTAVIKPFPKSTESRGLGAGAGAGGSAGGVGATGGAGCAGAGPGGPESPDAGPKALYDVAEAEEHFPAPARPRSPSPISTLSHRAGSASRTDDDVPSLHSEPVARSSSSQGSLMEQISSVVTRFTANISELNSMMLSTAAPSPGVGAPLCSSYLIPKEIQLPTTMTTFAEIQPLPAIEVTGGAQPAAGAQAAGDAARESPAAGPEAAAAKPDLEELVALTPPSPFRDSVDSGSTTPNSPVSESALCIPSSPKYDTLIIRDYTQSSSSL
UniProt P12023, residues 18-770: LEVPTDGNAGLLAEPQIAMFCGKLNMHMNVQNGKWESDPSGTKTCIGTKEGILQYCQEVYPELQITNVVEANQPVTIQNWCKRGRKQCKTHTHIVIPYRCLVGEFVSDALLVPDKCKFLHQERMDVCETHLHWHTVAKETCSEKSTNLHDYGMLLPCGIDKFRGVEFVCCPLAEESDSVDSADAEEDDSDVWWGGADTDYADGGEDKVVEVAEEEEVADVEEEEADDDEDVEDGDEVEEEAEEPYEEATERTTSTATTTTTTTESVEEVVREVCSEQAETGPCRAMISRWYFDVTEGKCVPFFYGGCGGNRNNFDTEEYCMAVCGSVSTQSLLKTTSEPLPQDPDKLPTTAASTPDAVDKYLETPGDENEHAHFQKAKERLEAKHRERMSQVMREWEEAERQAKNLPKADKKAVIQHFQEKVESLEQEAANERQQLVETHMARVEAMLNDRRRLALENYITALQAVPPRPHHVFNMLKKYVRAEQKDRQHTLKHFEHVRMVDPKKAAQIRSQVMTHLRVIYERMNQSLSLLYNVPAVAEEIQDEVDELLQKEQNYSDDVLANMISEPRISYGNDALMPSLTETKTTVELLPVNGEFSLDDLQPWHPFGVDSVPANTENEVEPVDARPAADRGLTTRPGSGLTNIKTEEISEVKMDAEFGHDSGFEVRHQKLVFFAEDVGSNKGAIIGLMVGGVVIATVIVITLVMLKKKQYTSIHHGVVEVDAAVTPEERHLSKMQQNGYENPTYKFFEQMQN
UniProt Q14832, residues 23-879: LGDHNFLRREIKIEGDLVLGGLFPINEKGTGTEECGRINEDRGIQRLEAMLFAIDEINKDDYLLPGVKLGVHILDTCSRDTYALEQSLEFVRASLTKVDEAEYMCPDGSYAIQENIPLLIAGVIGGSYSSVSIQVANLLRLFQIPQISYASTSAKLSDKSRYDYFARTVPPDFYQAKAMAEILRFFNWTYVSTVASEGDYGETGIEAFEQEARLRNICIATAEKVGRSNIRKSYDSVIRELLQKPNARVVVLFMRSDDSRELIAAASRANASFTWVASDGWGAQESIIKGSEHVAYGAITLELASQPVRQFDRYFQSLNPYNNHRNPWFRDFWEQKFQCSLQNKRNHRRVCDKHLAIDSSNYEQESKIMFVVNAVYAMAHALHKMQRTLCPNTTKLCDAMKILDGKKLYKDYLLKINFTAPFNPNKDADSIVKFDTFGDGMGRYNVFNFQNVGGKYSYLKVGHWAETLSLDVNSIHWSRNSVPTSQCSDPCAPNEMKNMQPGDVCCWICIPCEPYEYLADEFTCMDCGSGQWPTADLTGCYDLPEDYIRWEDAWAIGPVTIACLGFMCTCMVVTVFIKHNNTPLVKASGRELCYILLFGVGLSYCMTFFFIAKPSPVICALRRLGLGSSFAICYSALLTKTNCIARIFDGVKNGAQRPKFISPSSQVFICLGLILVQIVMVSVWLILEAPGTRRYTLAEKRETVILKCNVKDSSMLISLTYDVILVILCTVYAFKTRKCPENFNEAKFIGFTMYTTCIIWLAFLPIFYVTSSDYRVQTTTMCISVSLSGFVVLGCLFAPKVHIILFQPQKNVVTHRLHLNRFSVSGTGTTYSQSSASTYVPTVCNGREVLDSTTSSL

In assay [1] the target is Snap‐tagged human mGluR2 (human) (UniProt Q14416). Description: FRET or BRET; TR-FRET saturation assay at the surface of living HEK293T cells; fixed amount (20 ng) of the Snap-tagged construct labelled with Snap-Lumi4-Tb (donor), increasing amounts (0 to 160 ng) of the Halo-tagged construct labelled with Halo-red (acceptor); non-cell-permeant reagents. On the technique in general: BRET reads energy transfer from a luciferase to a nearby fluorophore.

For assay [2], the target named is endogenous mGluR3 (mouse cortex) (mouse (endogenous in cortex)) (UniProt Q9QYS2). The assay is described as follows: co-IP; immunoprecipitation of the endogenous receptors from WT mouse cortex lysate (1 mg protein; 0.1% SDS, 2% Triton X-100, 2% LMNG) with receptor-specific nanobodies and Ni-NTA agarose beads; washes with 500 mM and 150 mM NaCl; western blot for APP. In general terms: A western blot detects proteins with antibodies after separation by electrophoresis.

Assay [3] has as its target endogenous mGluR2 (mouse cortex) (mouse (endogenous in cortex)) (UniProt Q14BI2). The description is as above.
The target in another assay is Snap‐tagged APP (UniProt P05067). Description: FRET or BRET; TR-FRET saturation assay at the surface of living HEK293T cells; fixed amount (20 ng) of the Snap-tagged construct labelled with Snap-Lumi4-Tb (donor), increasing amounts (0 to 160 ng) of the Halo-tagged construct labelled with Halo-red (acceptor); non-cell-permeant reagents.

These are yes or no findings as the source states them, for the method shown. In cells and extracts the contact can be indirect. Some entries that bind do so weakly or less than the wild type.

As to “Halo‐tagged mGluR5 (from UniProt P41594 21-1212) (receptor)”, the binding result in assay [1] is recorded as “no binding”. As for “APP (endogenous, mouse cortex) (from UniProt P12023 18-770)”, the binding result was “binds” in assay [2] and “no binding” in assay [3]. “Halo‐tagged mGluR3 (from UniProt Q14832 23-879) (receptor)”: the binding entry in the assay with Snap‐tagged APP is on record as “binds”.
